According to publication PMC5041457, “Synergy and antagonism in regulation of recombinant human INO80 chromatin remodeling complex” (Nucleic Acids Research, 2016):
No constants are given. Whether binding was seen depends on the method and setting. Some entries that bind do so weakly or less than the wild type.

Legend:
[1] = molecular target: Arp5 (human) (UniProt Q9H9F9); assay: co-purification; as the core complex but with either the Arp5 gene or the Ies6 gene omitted from the co-expression; purified by the tags of Ino80
[2] = molecular target: Arp5-2xSII (human) (UniProt Q9H9F9); assay: co-purification; Arp5-2xSII and Ies6 co-expressed in insect cells; StrepTactin HP, HiTrap Q, Superdex 200 (50 mM Tris pH 8.0, 300 mM NaCl, 1 mM TCEP, 10% glycerol)

Q: For Ies6 (from UniProt Q6PI98 1-192), which binding [1] is on record?
A: binds

Q: What about the binding [2] of the same substance?
A: binds
